Laboratory results as given in patent US20090163534A1, “Indolizine Derivatives” (priority 2005, published 2009).
Some results were stated once for a whole list of compounds, not compound by compound.

target: T1, CRTH2 receptor (Homo sapiens, UniProt Q9Y5Y4); test: Calcium mobilisation (calcium flux) functional assay in CHO-K1 cells co-expressing CRTH2 and Ga16; assay type: cell-based; set-up: expressed in transfected cells; settings: CHO-K1 cells co-expressing CRTH2 and Ga16, agonist at EC80
T1 sequence (Q9Y5Y4 1-395): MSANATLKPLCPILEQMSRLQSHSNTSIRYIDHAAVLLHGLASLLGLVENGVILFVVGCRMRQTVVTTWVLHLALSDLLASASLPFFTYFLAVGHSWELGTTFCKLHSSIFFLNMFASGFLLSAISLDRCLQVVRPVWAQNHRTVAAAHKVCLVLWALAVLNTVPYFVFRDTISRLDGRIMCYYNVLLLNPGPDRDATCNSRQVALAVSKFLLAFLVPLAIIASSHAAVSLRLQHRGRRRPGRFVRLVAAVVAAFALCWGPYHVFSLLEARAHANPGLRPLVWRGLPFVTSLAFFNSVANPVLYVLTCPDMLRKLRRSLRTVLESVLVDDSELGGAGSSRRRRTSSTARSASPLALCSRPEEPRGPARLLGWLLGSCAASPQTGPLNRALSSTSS

**Q.** How did the IC50 turn out when `Cc1c(CC(=O)O)c2cc(Cl)c(C(F)(F)F)cn2c1Sc1ccc(S(C)(=O)=O)cc1` [Example 16, [7-chloro-3-(4-methanesulfonylphenylsulfanyl)-2-methyl-6-trifluoromethylindolizin-1-yl]acetic acid] was run?
**A.** < 3 µM

**Q.** For `Cc1c(CC(=O)O)c2ccc(C#N)cn2c1Sc1ccc(S(C)(=O)=O)cc1` [Example 13, [6-cyano-3-(4-methanesulfonylphenylsulfanyl)-2-methylindolizin-1-yl]acetic acid], which IC50 is on record?
**A.** < 3 µM

**Q.** `Cc1c(CC(=O)O)c2ccc(F)cn2c1Sc1ccc(S(C)(=O)=O)cc1` [Example 10, [6-fluoro-3-(4-methanesulfonylphenylsulfanyl)-2-methylindolizin-1-yl]acetic acid] was tested. Which IC50 did it give?
**A.** < 3 µM

**Q.** With `Cc1c(CC(=O)O)c2cc(Cl)ccn2c1Sc1ccc(S(C)(=O)=O)cc1` [Example 9, [7-chloro-3-(4-methanesulfonylphenylsulfanyl)-2-methylindolizin-1-yl]acetic acid] as the compound, how does the IC50 read?
**A.** < 3 µM

**Q.** Which IC50 does the source give for `Cc1c(CC(=O)O)c2cc(C(F)(F)F)ccn2c1Sc1ccc(S(C)(=O)=O)cc1` [Example 12, [3-(4-methanesulfonylphenylsulfanyl)-2-methyl-7-trifluoromethylindolizin-1-yl]acetic acid] here?
**A.** < 3 µM

**Q.** For `Cc1c(CC(=O)O)c2ccc(C(F)(F)F)cn2c1Sc1ccc(S(C)(=O)=O)cc1` [Example 15, [3-(4-methanesulfonylphenylsulfanyl)-2-methyl-6-trifluoromethylindolizin-1-yl]acetic acid], which IC50 is on record?
**A.** < 3 µM

**Q.** `Cc1c(CC(=O)O)c2ccc(C(N)=O)cn2c1Sc1ccc(S(C)(=O)=O)cc1` [Example 14, [6-carbamoyl-3-(4-methanesulfonylphenylsulfanyl)-2-methylindolizin-1-yl]acetic acid] was tested. Which IC50 did it give?
**A.** < 3 µM

target: T1, CRTH2 receptor; test: GTPγS functional assay; assay type: biochemical; set-up: expressed in transfected cells; host or cells: HEK (human embryonic kidney) cell membranes; settings: HEK cell membranes expressing the CRTH2 receptor, PGD2 30 nM

**Q.** Which IC50 does the source give for `Cc1c(CC(=O)O)c2ccccn2c1S(=O)(=O)c1ccc2ccccc2c1` [Example 6, [2-methyl-3-(naphthalene-2-sulfonyl)indolizin-1-yl]acetic acid] here?
**A.** < 1000 nM

**Q.** `Cc1c(CC(=O)O)c2ccccn2c1S(=O)(=O)c1ccc(Cl)cc1` [Example 2, [3-(4-chlorobenzenesulfonyl)-2-methylindolizin-1-yl]acetic acid] was tested. Which IC50 did it give?
**A.** < 1000 nM

**Q.** With `Cc1c(CC(=O)O)c2ccccn2c1Sc1ccc(Cl)cc1` [Example 1] as the compound, how does the IC50 read?
**A.** < 1000 nM

**Q.** `Cc1c(CC(=O)O)c2ccccn2c1S(=O)(=O)c1cc(Cl)cc(Cl)c1` [Example 4, [3-(3,5-dichlorobenzenesulfonyl)-2-methylindolizin-1-yl]acetic acid] was tested. Which IC50 did it give?
**A.** < 1000 nM

**Q.** With `Cc1c(CC(=O)O)c2ccccn2c1Sc1ccc(S(C)(=O)=O)cc1` [Example 3, [3-(4-methanesulfonylphenylsulfanyl)-2-methylindolizin-1-yl]acetic acid] as the compound, how does the IC50 read?
**A.** < 1000 nM

**Q.** `Cc1c(CC(=O)O)c2ccccn2c1Sc1cccc2ccccc12` [Example 7, [2-methyl-3-(naphthalen-1-ylsulfanyl)indolizin-1-yl]acetic acid] was tested. Which IC50 did it give?
**A.** < 1000 nM

**Q.** Which IC50 does the source give for `Cc1c(CC(=O)O)c2ccccn2c1S(=O)(=O)Cc1ccc(Cl)cc1` [Example 5] here?
**A.** < 1000 nM

**Q.** Which IC50 does the source give for `Cc1c(CC(=O)O)c2cc(Cl)ccn2c1Sc1ccc(S(C)(=O)=O)cc1` [Example 9, [7-chloro-3-(4-methanesulfonylphenylsulfanyl)-2-methylindolizin-1-yl]acetic acid] here?
**A.** < 1000 nM

**Q.** For `Cc1c(CC(=O)O)c2ccccn2c1Sc1cccc2cccnc12` [Example 8, [2-methyl-3-(quinolin-8-ylsulfanyl)indolizin-1-yl]acetic acid], which IC50 is on record?
**A.** < 1000 nM
